From paper PMC6050537 (Chemical Science, 2018)

assay: general procedure: Fmoc solid-phase peptide synthesis; pre-loaded Wang resin; details: conjugation step

Substance “PEPTIDE1{C.F.[Cha].L.Y.T}|PEPTIDE2{C.G.R.K.K.R.R.Q.R.R.R.P.P.Q}$PEPTIDE1,PEPTIDE1,1:R1-6:R2|PEPTIDE1,PEPTIDE2,1:R3-1:R3$$$V2.0” has a conjugation yield of 21%.

same assay, conditions: conjugation step, 220 nm

With “PEPTIDE1{C.F.[Cha].L.Y.T}|PEPTIDE2{C.G.R.K.K.R.R.Q.R.R.R.P.P.Q}$PEPTIDE1,PEPTIDE1,1:R1-6:R2|PEPTIDE1,PEPTIDE2,1:R3-1:R3$$$V2.0” the “final HPLC purity” value was 100%.

same assay, conditions: whole synthesis

Going from “HELM PEPTIDE1{C.F.F.L.Y.T}$PEPTIDE1,PEPTIDE1,1:R1-6:R2$$$V2.0 (SMILES CC(C)C[C@@H]1NC(=O)[C@H](Cc2ccccc2)NC(=O)[C@H](Cc2ccccc2)NC(=O)[C@H](CS)NC(=O)[C@H]([C@@H](C)O)NC(=O)[C@H](Cc2ccc(O)cc2)NC1=O)” to “HELM PEPTIDE1{C.F.[Cha].L.Y.T}$PEPTIDE1,PEPTIDE1,1:R1-6:R2$$$V2.0 (SMILES CC(C)C[C@@H]1NC(=O)[C@H](CC2CCCCC2)NC(=O)[C@H](Cc2ccccc2)NC(=O)[C@H](CS)NC(=O)[C@H]([C@@H](C)O)NC(=O)[C@H](Cc2ccc(O)cc2)NC1=O)”, the isolated yield falls from 23.8% to 12.8%.

First: HELM PEPTIDE1{C.T.I.F.L.L}$PEPTIDE1,PEPTIDE1,1:R1-6:R2$$$V2.0 (SMILES CC[C@H](C)[C@@H]1NC(=O)[C@H]([C@@H](C)O)NC(=O)[C@H](CS)NC(=O)[C@H](CC(C)C)NC(=O)[C@H](CC(C)C)NC(=O)[C@H](Cc2ccccc2)NC1=O)
Second: HELM PEPTIDE1{C.T.L.I.L.F}$PEPTIDE1,PEPTIDE1,1:R1-6:R2$$$V2.0 (SMILES CC[C@H](C)[C@@H]1NC(=O)[C@H](CC(C)C)NC(=O)[C@H]([C@@H](C)O)NC(=O)[C@H](CS)NC(=O)[C@H](Cc2ccccc2)NC(=O)[C@H](CC(C)C)NC1=O)
The isolated yield of the first is higher: 11.5% for the first, 6% for the second.

Going from “HELM PEPTIDE1{C.T.V.F.I.I}$PEPTIDE1,PEPTIDE1,1:R1-6:R2$$$V2.0 (SMILES CC[C@H](C)[C@@H]1NC(=O)[C@H](Cc2ccccc2)NC(=O)[C@H](C(C)C)NC(=O)[C@H]([C@@H](C)O)NC(=O)[C@H](CS)NC(=O)[C@H]([C@@H](C)CC)NC1=O)” to cyclo-CYL FT-[Cha] (ScramPep2), the isolated yield falls from 25% to 5.7%.

Compared with “HELM PEPTIDE1{C.R.L.F.L.I}$PEPTIDE1,PEPTIDE1,1:R1-6:R2$$$V2.0 (SMILES CC[C@H](C)[C@@H]1NC(=O)[C@H](CC(C)C)NC(=O)[C@H](Cc2ccccc2)NC(=O)[C@H](CC(C)C)NC(=O)[C@H](CCCNC(=N)N)NC(=O)[C@H](CS)NC1=O)”, “HELM PEPTIDE1{C.S.V.V.I.L}$PEPTIDE1,PEPTIDE1,1:R1-6:R2$$$V2.0 (SMILES CC[C@H](C)[C@@H]1NC(=O)[C@H](C(C)C)NC(=O)[C@H](C(C)C)NC(=O)[C@H](CO)NC(=O)[C@H](CS)NC(=O)[C@H](CC(C)C)NC1=O)” is lower in isolated yield: 10.5% yield for the first, 7% yield for the second.

Strings that start with PEPTIDE1 are HELM notation: dots part the residues, brackets hold end groups and non-standard residues.
